Measured data: PubChem BioAssay AID1259405 (NCATS, 2018)

Assay: 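Silenced genes that increase secreted GFP made by CHO cells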 (primary screen)
Cells: Chinese hamster CHO-K1 ovary cells with stable secreted eGFP expression
Reagents: single siRNA against mouse genes, 0.8 pmol siRNA per well (2 µl of 400 nM stock)
Time to read-out: 3 days
Measured: 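Per-well intracellular GFP measured by laser scanning cytometry, plus viability from ATP luminescence, each relative to plate median of non-targeting control wells, in %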
Reading the numbers: GFP, % of control: higher = more GFP per well, higher productivity; viability (ATP), % of control: higher = more viable cells (more ATP)
Call rule: 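Called active when intracellular GFP, relative to negative control, is at or above 120%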
This is one part, drawn at random, of about 50,000 deposited reagents. Of all reagents, about 4,000 (8%) got an active call. 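Mouse siRNA library applied to hamster cells; one well for each siRNA.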 Reagents against one gene are numbered here.

Or51a10 (olfactory receptor family 51 subfamily A member 10) #1: GFP, % of control = 106; viability (ATP), % of control = 55.7; outcome = inactive
Or51a10 (olfactory receptor family 51 subfamily A member 10) #2: GFP, % of control = 113; viability (ATP), % of control = 24.1; outcome = inactive
Or51a10 (olfactory receptor family 51 subfamily A member 10) #3: GFP, % of control = 46.4; viability (ATP), % of control = 76.7; outcome = inactive
Rdh10 (retinol dehydrogenase 10 (all-trans)) #1: GFP, % of control = 65.7; viability (ATP), % of control = 110; outcome = inactive
Rdh10 (retinol dehydrogenase 10 (all-trans)) #2: GFP, % of control = 25; viability (ATP), % of control = 34.8; outcome = inactive
Rdh10 (retinol dehydrogenase 10 (all-trans)) #3: GFP, % of control = 132; viability (ATP), % of control = 106; outcome = active
Tlr13 (toll-like receptor 13) #1: GFP, % of control = 59.8; viability (ATP), % of control = 70.3; outcome = inactive
Tlr13 (toll-like receptor 13) #2: GFP, % of control = 84; viability (ATP), % of control = 83.6; outcome = inactive
Tlr13 (toll-like receptor 13) #3: GFP, % of control = 74.1; viability (ATP), % of control = 89.6; outcome = inactive
Pcid2 (PCI domain containing 2) #1: GFP, % of control = 96.3; viability (ATP), % of control = 81.5; outcome = inactive
Pcid2 (PCI domain containing 2) #2: GFP, % of control = 42.9; viability (ATP), % of control = 28.4; outcome = inactive
Pcid2 (PCI domain containing 2) #3: GFP, % of control = 66.5; viability (ATP), % of control = 87.9; outcome = inactive
Plod1 (procollagen-lysine, 2-oxoglutarate 5-dioxygenase 1) #1: GFP, % of control = 98.4; viability (ATP), % of control = 87.1; outcome = inactive
Plod1 (procollagen-lysine, 2-oxoglutarate 5-dioxygenase 1) #2: GFP, % of control = 72.4; viability (ATP), % of control = 64.1; outcome = inactive
Plod1 (procollagen-lysine, 2-oxoglutarate 5-dioxygenase 1) #3: GFP, % of control = 60.3; viability (ATP), % of control = 43.1; outcome = inactive
Shh (sonic hedgehog signaling molecule) #1: GFP, % of control = 86.1; viability (ATP), % of control = 70.9; outcome = inactive
Shh (sonic hedgehog signaling molecule) #2: GFP, % of control = 69; viability (ATP), % of control = 65; outcome = inactive
Shh (sonic hedgehog signaling molecule) #3: GFP, % of control = 108; viability (ATP), % of control = 128; outcome = inactive
Gkap1 (G kinase anchoring protein 1) #1: GFP, % of control = 117; viability (ATP), % of control = 80.4; outcome = inactive
Gkap1 (G kinase anchoring protein 1) #2: GFP, % of control = 112; viability (ATP), % of control = 76.2; outcome = inactive
Or1e34 (olfactory receptor family 1 subfamily E member 34) #1: GFP, % of control = 93.3; viability (ATP), % of control = 61.5; outcome = inactive
Or1e34 (olfactory receptor family 1 subfamily E member 34) #2: GFP, % of control = 73.6; viability (ATP), % of control = 77.6; outcome = inactive
Or1e34 (olfactory receptor family 1 subfamily E member 34) #3: GFP, % of control = 94.4; viability (ATP), % of control = 107; outcome = inactive
Rbbp9 (retinoblastoma binding protein 9, serine hydrolase) #1: GFP, % of control = 110; viability (ATP), % of control = 72.6; outcome = inactive
Rbbp9 (retinoblastoma binding protein 9, serine hydrolase) #2: GFP, % of control = 94.8; viability (ATP), % of control = 80.1; outcome = inactive
Rbbp9 (retinoblastoma binding protein 9, serine hydrolase) #3: GFP, % of control = 96.1; viability (ATP), % of control = 80.2; outcome = inactive
Prrg4 (proline rich Gla (G-carboxyglutamic acid) 4 (transmembrane)) #1: GFP, % of control = 55.9; viability (ATP), % of control = 59; outcome = inactive
Prrg4 (proline rich Gla (G-carboxyglutamic acid) 4 (transmembrane)) #2: GFP, % of control = 79.1; viability (ATP), % of control = 58.6; outcome = inactive
Prrg4 (proline rich Gla (G-carboxyglutamic acid) 4 (transmembrane)) #3: GFP, % of control = 87.1; viability (ATP), % of control = 88.6; outcome = inactive
Ugdh (UDP-glucose dehydrogenase) #1: GFP, % of control = 67.1; viability (ATP), % of control = 97.6; outcome = inactive
Ugdh (UDP-glucose dehydrogenase) #2: GFP, % of control = 59.2; viability (ATP), % of control = 79.8; outcome = inactive
Ugdh (UDP-glucose dehydrogenase) #3: GFP, % of control = 73.2; viability (ATP), % of control = 87.5; outcome = inactive
Hagh (hydroxyacyl glutathione hydrolase) #1: GFP, % of control = 99.1; viability (ATP), % of control = 98.1; outcome = inactive
Hagh (hydroxyacyl glutathione hydrolase) #2: GFP, % of control = 127; viability (ATP), % of control = 108; outcome = active
Hagh (hydroxyacyl glutathione hydrolase) #3: GFP, % of control = 53.1; viability (ATP), % of control = 89.6; outcome = inactive
Ckb (creatine kinase, brain): GFP, % of control = 98; viability (ATP), % of control = 73; outcome = inactive
Igf2bp3 (insulin-like growth factor 2 mRNA binding protein 3) #1: GFP, % of control = 110; viability (ATP), % of control = 80.3; outcome = inactive
Igf2bp3 (insulin-like growth factor 2 mRNA binding protein 3) #2: GFP, % of control = 123; viability (ATP), % of control = 94.3; outcome = active
Igf2bp3 (insulin-like growth factor 2 mRNA binding protein 3) #3: GFP, % of control = 136; viability (ATP), % of control = 126; outcome = active
Glyat (glycine-N-acyltransferase) #1: GFP, % of control = 43.6; viability (ATP), % of control = 45.2; outcome = inactive
Glyat (glycine-N-acyltransferase) #2: GFP, % of control = 71.6; viability (ATP), % of control = 81.4; outcome = inactive
Glyat (glycine-N-acyltransferase) #3: GFP, % of control = 87.2; viability (ATP), % of control = 68.2; outcome = inactive
C8a (complement component 8, alpha polypeptide) #1: GFP, % of control = 52.8; viability (ATP), % of control = 60.5; outcome = inactive
C8a (complement component 8, alpha polypeptide) #2: GFP, % of control = 81.4; viability (ATP), % of control = 76.3; outcome = inactive
C8a (complement component 8, alpha polypeptide) #3: GFP, % of control = 67.3; viability (ATP), % of control = 60.5; outcome = inactive
Osbpl1a (oxysterol binding protein-like 1A) #1: GFP, % of control = 69.5; viability (ATP), % of control = 82.7; outcome = inactive
Osbpl1a (oxysterol binding protein-like 1A) #2: GFP, % of control = 88.5; viability (ATP), % of control = 69.8; outcome = inactive
Osbpl1a (oxysterol binding protein-like 1A) #3: GFP, % of control = 88.6; viability (ATP), % of control = 80; outcome = inactive
Prkg1 (protein kinase, cGMP-dependent, type I): GFP, % of control = 64.7; viability (ATP), % of control = 69.7; outcome = inactive
Dnajc2 (DnaJ heat shock protein family (Hsp40) member C2) #1: GFP, % of control = 84.6; viability (ATP), % of control = 71.2; outcome = inactive
Dnajc2 (DnaJ heat shock protein family (Hsp40) member C2) #2: GFP, % of control = 104; viability (ATP), % of control = 86.4; outcome = inactive
Dnajc2 (DnaJ heat shock protein family (Hsp40) member C2) #3: GFP, % of control = 76.6; viability (ATP), % of control = 68.1; outcome = inactive
